# Assay results reported in the supplement of paper PMC8728848.
# The list shows a part of the results.
# B1: XTP3-B-MRH2 (Homo sapiens), Q96DZ1 (protein)
# chain: EFLSGSYCFRGGVGWWKYEFCYGKHVHQYHEDKDSGKTSVVVGTWNQEEHIEWAKKNTARAYHLQDDGTQTVRMVSHFYGNGDICDITDKPRQVTVKLKCKESDSPHAVTVYMLEPHSCQYILGVESPVICKILDTA
# Legend:
# Test in all cases: glycan array binding signal (z-score within array); higher = stronger binding
# Conditions in all cases: glycan notation: IUPAC condensed, linker removed
# [1] = target: Neu5Gc(a2-8)Neu5Gc(a2-3)Gal(b1-4)GlcNAc(b1-3)Gal(b1-4)GlcNAc
# How it was run: (§1)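 Arrays were curated from the Consortium for Functional Glycomics database, 3228 in total, and kept only where the protein sequence was available. Binding is expressed as a within-array Z-score. This score was averaged across arrays of the same protein sequence at different concentrations or buffers and across linkers, and negative values can be read as non-binding.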
# [2] = target: Neu5Gc(a2-8)Neu5Gc(a2-6)Gal(b1-4)GlcNAc
# How it was run: as §1
# [3] = target: Neu5Gc(b2-6)Gal(b1-4)GlcNAc
# How it was run: as §1
binder,measurement,setting,value
B1,glycan array binding signal (z-score),[1],1.33
same,glycan array binding signal (z-score),[2],-1.01
same,glycan array binding signal (z-score),[3],1.3
